Results are given in words; binding and its absence hold for the method and conditions named. Binding can be weak; no strength is given. Sequences can lack the tags named with a protein.

The target of assay [1] is taxol-stabilised microtubules. Put plainly: single-bead laser trap; as the laser trap, after flow-in of assay buffer with 18 nM dimeric hTpx2; both purified.
Assay [2] deals with taxol-stabilised microtubules. Put plainly: single-bead laser trap; motors non-specifically adsorbed to 550 nm polystyrene beads, steered to microtubules; 20 mM Pipes, 2 mM MgSO4, 1 mM ATP, 4 µM taxol; no hTpx2; both purified.

B1: Full-length human His6-Kif15 (protein, UniProt Q9NS87 1-1388)
chain: MAPGCKTELRSVTNGQSNQPSNEGDAIKVFVRIRPPAERSGSADGEQNLCLSVLSSTSLRLHSNPEPKTFTFDHVADVDTTQESVFATVAKSIVESCMSGYNGTIFAYGQTGSGKTFTMMGPSESDNFSHNLRGVIPRSFEYLFSLIDREKEKAGAGKSFLCKCSFIEIYNEQIYDLLDSASAGLYLREHIKKGVFVVGAVEQVVTSAAEAYQVLSGGWRNRRVASTSMNRESSRSHAVFTITIESMEKSNEIVNIRTSLLNLVDLAGSERQKDTHAEGMRLKEAGNINRSLSCLGQVITALVDVGNGKQRHVCYRDSKLTFLLRDSLGGNAKTAIIANVHPGSRCFGETLSTLNFAQRAKLIKNKAVVNEDTQGNVSQLQAEVKRLKEQLAELASGQTPPESFLTRDKKKTNYMEYFQEAMLFFKKSEQEKKSLIEKVTQLEDLTLKKEKFIQSNKMIVKFREDQIIRLEKLHKESRGGFLPEEQDRLLSELRNEIQTLREQIEHHPRVAKYAMENHSLREENRRLRLLEPVKRAQEMDAQTIAKLEKAFSEISGMEKSDKNQQGFSPKAQKEPCLFANTEKLKAQLLQIQTELNNSKQEYEEFKELTRKRQLELESELQSLQKANLNLENLLEATKACKRQEVSQLNKIHAETLKIITTPTKAYQLHSRPVPKLSPEMGSFGSLYTQNSSILDNDILNEPVPPEMNEQAFEAISEELRTVQEQMSALQAKLDEEEHKNLKLQQHVDKLEHHSTQMQELFSSERIDWTKQQEELLSQLNVLEKQLQETQTKNDFLKSEVHDLRVVLHSADKELSSVKLEYSSFKTNQEKEFNKLSERHMHVQLQLDNLRLENEKLLESKACLQDSYDNLQEIMKFEIDQLSRNLQNFKKENETLKSDLNNLMELLEAEKERNNKLSLQFEEDKENSSKEILKVLEAVRQEKQKETAKCEQQMAKVQKLEESLLATEKVISSLEKSRDSDKKVVADLMNQIQELRTSVCEKTETIDTLKQELKDINCKYNSALVDREESRVLIKKQEVDILDLKETLRLRILSEDIERDMLCEDLAHATEQLNMLTEASKKHSGLLQSAQEELTKKEALIQELQHKLNQKKEEVEQKKNEYNFKMRQLEHVMDSAAEDPQSPKTPPHFQTHLAKLLETQEQEIEDGRASKTSLEHLVTKLNEDREVKNAEILRMKEQLREMENLRLESQQLIEKNWLLQGQLDDIKRQKENSDQNHPDNQQLKNEQEESIKERLAKSKIVEEMLKMKADLEEVQSALYNKEMECLRMTDEVERTQTLESKAFQEKEQLRSKLEEMYEERERTSQEMEMLRKQVECLAEENGKLVGHQNLHQKIQYVVRLKKENVRLAEETEKLRAENVFLKEKKRSES
In the case of B1, the binding result in assay [1] and in assay [2] was “binds” each time.

The record behind these values is paper PMC3965211.
